Source: PubChem BioAssay AID485314 (National Center for Advancing Translational Sciences (NCATS), 2010)
The campaign covered roughly 340,000 compounds. About 4,500 (1.3%) were called active. Inconclusive means that the source gave no clear call. Such entries were picked first, then a sample of the others. Calls come from the whole dose curve; as a rule, active = well fitted inhibition curve with a large enough effect; inconclusive = small, poorly fitted or top-dose-only effect, or another doubt; inactive = no such curve, though single readings can be large or run the other way. Potencies beside an inconclusive call are fits to weak or partial responses and may not hold up.

Biological target: DNA polymerase beta (Homo sapiens) (UniProt P06746)
Assay: qHTS Assay for Inhibitors of DNA Polymerase Beta
Details: Pol beta primer extension/strand displacement, fluorescence kinetic; activity change, negative = inhibition: at 114 µM (top of the series)
Outline: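 Pol beta (10 nM) was preincubated with compound for 15 min at room temperature. The reaction was then started with 50 nM substrate and read immediately and after a further 10 min at room temperature.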
% is set by controls: 0 for no effect and ±100 for the full control effect; potency is the fitted concentration of half-maximal effect.

`COc1cc(-c2nnc(SCC(=O)NC3CCCC3)n2C)cc(OC)c1O` was tested. Which “activity change, negative = inhibition” value did it give?
The value was inactive: 37%.

`O=C(NCc1ccc2c(c1)OCO2)C1CCN(C(=O)Nc2ccc(Cl)cc2)CC1` was tested. Which Potency did it give?
The Potency was inconclusive: 44.7 µM [inhibitor, partial curve].

`CC(C)c1ccc(Nc2ncccc2C#N)cc1` was tested. Which Potency did it give?
Its Potency is inconclusive: 0.251 µM [inhibitor, full curve, poor fit].

How did the Potency turn out when `CC(=O)N1CCOc2cc(S(=O)(=O)Nc3cc(C(F)(F)F)ccc3Cl)c(C)cc21` was run?
Its Potency is inconclusive: 56.2 µM [inhibitor, single point].

For `Cc1c(C=O)c2ccccn2c1C(=O)c1cccs1`, which Potency is on record?
The Potency was inconclusive: 56.2 µM [inhibitor, single point].

With `CC(C)(C)c1cc(OC(=O)c2ccccc2F)ccc1O` as the compound, how does the Potency read?
The Potency was inconclusive: 5.01 µM [inhibitor, partial curve].

For `COc1ccc2c(c1)c1c(c(=O)n(Cc3ccccc3)c(=O)n1Cc1ccccc1)n2C`, which “activity change, negative = inhibition” value is on record?
The value was inactive: 2.27%.

Which Potency does the source give for `COc1cc(OC)cc(C(=O)NCCN2CCOCC2)c1` here?
Its Potency is inconclusive: 0.562 µM [inhibitor, full curve, poor fit].

How did the Potency turn out when `COc1ccc(S(=O)(=O)Cc2ccc(C(=O)N3CCN(c4cc(C)ccc4C)CC3)o2)cc1` was run?
Its Potency is inconclusive: 0.126 µM [inhibitor, full curve, poor fit].

`Cc1ccc2c(c1)-c1c(cnn1CC(=O)N(Cc1ccco1)C1CCCCC1)CO2` was tested. Which Potency did it give?
The Potency was inconclusive: 89.1 µM [inhibitor, single point].

`Cc1ccc(-n2c(-c3ccncc3)n[nH]c2=S)cc1C` was tested. Which Potency did it give?
The Potency was inconclusive: 89.1 µM [inhibitor, single point].

How did the Potency turn out when `CN(C)c1ccc(/C=N/NC(=O)C(O)(c2ccccc2)c2ccccc2)o1` was run?
The Potency was inconclusive: 70.8 µM [inhibitor, single point].

For `CCOC(=O)C1=C(C)N=c2s/c(=C/c3ccco3)c(=O)n2C1c1cccc(OC)c1` (centres undefined), which Potency is on record?
Its Potency is active: 31.6 µM.

Which Potency does the source give for `CC(C)COC(=O)c1cc(-c2ccc(/C=N/n3cnnc3)o2)ccc1Cl` here?
Its Potency is inconclusive: 56.2 µM [inhibitor, single point].

With `Fc1cccc(CSc2nc3ncc(Cl)cc3[nH]2)c1` as the compound, how does the Potency read?
Its Potency is active: 35.5 µM.

How did the “activity change, negative = inhibition” value turn out when `N#CC1=C2SCN(c3ccccc3)CN2C(=O)CC1c1ccccc1Cl` (centres undefined) was run?
Its value is inactive: 2.38%.

`O=C(COC(=O)c1ccccc1)NCc1ccco1` was tested. Which Potency did it give?
Its Potency is active: 25.1 µM.

How did the Potency turn out when `CCc1cccc(C)c1NC(=O)C1CCN(S(=O)(=O)c2cc(Br)cc3c2N(C(C)=O)CC3)CC1` was run?
The Potency was inconclusive: 89.1 µM [inhibitor, single point].

`COc1cccc(-n2ccnc2SCC(=O)Nc2cccc3ccccc23)c1` was tested. Which “activity change, negative = inhibition” value did it give?
The value was inactive: 0.759%.
